# Results of single-concentration screens

Protein sequences, listed by entry. Tags and fused reporters are not part of them.
UniProt P9WFT3, whole entry: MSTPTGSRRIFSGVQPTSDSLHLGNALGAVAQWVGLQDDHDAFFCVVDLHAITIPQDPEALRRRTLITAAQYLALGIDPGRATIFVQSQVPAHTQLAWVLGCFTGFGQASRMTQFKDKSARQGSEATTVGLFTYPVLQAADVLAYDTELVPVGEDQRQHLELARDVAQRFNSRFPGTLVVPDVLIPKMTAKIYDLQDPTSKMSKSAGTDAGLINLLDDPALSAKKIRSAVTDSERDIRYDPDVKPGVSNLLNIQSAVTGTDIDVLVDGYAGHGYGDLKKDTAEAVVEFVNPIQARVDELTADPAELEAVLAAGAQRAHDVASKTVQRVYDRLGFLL

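Tryptophan-tRNA ligase, Mycobacterium tuberculosis (UniProt P9WFT3). Enzyme assay of tryptophanyl-tRNA synthetase; the read-out is not stated. Compounds at 10 µM. Higher most likely means stronger inhibition; the record gives no direction and few retests gave an IC50. About 65,000 compounds were tested under these conditions; 0.098% (about 64) showed 50% or more at least once.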

Each number is a percent effect as filed. The record does not define 0% and 100%; most values in the screen are far below 50% and negative numbers occur (in some assays of this library far below -100). Compounds were drawn at random from those tested, without regard to their results.

| SMILES | effect |
|---|---|
| `COc1ccc(NC(=O)N(CC2CCOC2)C2CC2)cn1` (configuration not stated) | 14.57 |
| `CN1CC(=O)N(c2cccc(F)c2)CC12CCN(Cc1ccncc1)C2` (configuration not stated) | 18.73 |
| `Cc1ccc(S(=O)(=O)NCCNC(=O)c2cncnc2C)cc1` | -1.636 |
| `CN(C)CCN1CCN(Cc2cccc(C#N)c2)Cc2cccnc21` | -0.6352 |
| `CN(C)c1ccnc(C2CCCN2)n1` (configuration not stated) | 0 |
| `Cc1noc(C2CCC3(CCN(C(=O)c4cnn(C)c4)CC3)O2)n1` (configuration not stated) | -3.539 |
| `Oc1cccc(CN2CCN(C3CCc4ccccc4C3)CC2)c1` (configuration not stated) | 0.9397 |
| `CNC(=O)CN1CCC(NC2CSCCc3ccccc32)CC1` (configuration not stated) | -1.698 |
| `COc1cc(N2CCCn3cnc(COC(C)C)c3C2)ncn1` | 9.373 |
| `CC(NS(=O)(=O)CC1(C#N)CCCC1)c1cccc(-n2cccn2)c1` (configuration not stated) | 15.4 |
| `Cn1ncc(N2CCC(CNC3Cc4ccccc4C3)C2)cc1=O` (configuration not stated) | -2.252 |
| `Cc1cc(OCC(=O)N2CCCC(c3ccn[nH]3)C2)no1` (configuration not stated) | -1.943 |
| `COCc1ncn2c1CN(S(=O)(=O)c1cccc(F)c1)CC2` | 1.526 |
| `COc1ccccc1C(=O)Nc1nc2c(s1)CN(S(=O)(=O)C1CC1)CC2` | 1.765 |
| `CC(=O)Nc1nc(C(=O)NC(C)c2ccc3c(c2)OCCO3)cs1` (configuration not stated) | 1.798 |
| `CNC(=O)C(C)(C)N1CCC[C@H]1C(=O)NCC1CC1` | 4.744 |
| `Cc1cccc(CNC(=O)CNc2cc(CO)ccc2Cl)c1` | -0.7415 |
| `CC(C)c1nccc(CN(C)Cc2cccc(-n3cccn3)c2)n1` | 1.363 |
| `CCCC(=O)NCCCn1ncc2c(C)cccc21` | 1.554 |
| `Cc1ccc(CN(CCCN2CCOCC2)Cc2cncn2C)o1` | -5.02 |
| `CCN(CC)CC1CCN(Cc2ccn(C)c(=O)c2)CC1` | -2.328 |
| `CNC(=O)C(NC(=O)c1nccn2ccnc12)c1ccc(F)c(F)c1` (configuration not stated) | -1.126 |
| `Cc1csc(C(=O)N2CCC(S(C)(=O)=O)CC2)c1` | -1.877 |
| `CN(Cc1nnc2ccccn12)C(=O)CCC1CCCC1` | 2.321 |
| `NC(=O)c1cn(CC2CC2)c(C2CC2)n1` | 2.67 |
| `Cc1ncc(C(=O)NCCNC(=O)c2ccccc2)s1` | -3.888 |
| `N#Cc1ccc(C(=O)N2CCCC3(C=Cc4ccccc4O3)CC2)cn1` (configuration not stated) | 9.747 |
| `CC(C)COC(=O)N1CCCN(Cc2nnc(C(C)(C)C)o2)CC1` | -4.674 |
| `CCN(CC(=O)N(C)C)C(=O)c1nc(C)n(-c2ccccc2Cl)n1` | 0.0657 |
| `CN1CC2(CCC1=O)CCN(CC[C@@H](O)c1ccccc1)CC2` | -3.936 |
| `Cc1nccnc1N1C[C@H](NC(=O)CNS(C)(=O)=O)[C@@H](C2CC2)C1` | -1.19 |
| `O=C(COCc1nc(-c2ccncc2)no1)N1CCCC1` | 3.065 |
| `CN1CCN(c2ncc3c(c2C(=O)O)CCN(C2CCOC2)C3)CC1` (configuration not stated) | -0.1079 |
| `CCS(=O)(=O)N1CCO[C@H]2[C@H](Oc3ncccc3F)CC[C@@H]21` | -4.071 |
| `O=C(c1cc(-n2cnnn2)ccc1Cl)N1CCCCCC1` | 1.898 |
| `Cc1csc(C2CCCN(C(=O)c3cnc4n[nH]c(C)c4c3)C2)n1` (configuration not stated) | 2.895 |
| `CCC(C)(CC(=O)OC)NC(=O)c1ccc(C(C)=O)cc1` (configuration not stated) | 6.755 |
| `Cn1ncc(NCc2cccc(OCC(F)(F)F)c2)c(Cl)c1=O` | 17.58 |
| `Cc1ncn(CCNC(=O)Nc2ccc(F)c(Cl)c2)c(=O)c1C` | -0.983 |
| `CSCC[C@H](NC(C)=O)c1nc(Cc2ccccc2)n[nH]1` | 4.332 |
| `Cc1cc(S(=O)(=O)N2CCCc3ccccc32)sc1C(=O)O` | 10.07 |
| `CCc1ncc2c(n1)CN(C(=O)CNC(=O)C(C)C)C2` | -2.171 |
| `Cc1ccc(C(=O)N2CCN(CCc3ccccc3)CC2)c(=O)[nH]1` | 5.749 |
| `CN(C(=O)CNCCn1cccn1)C1(C#N)CCCCC1` | -8.909 |
| `CCc1nc(C2CCCN2C(=O)c2cc(Cl)c[nH]2)no1` (configuration not stated) | -5.185 |
| `Cc1cc(-c2nn(C)c(Cl)c2CN2CCOCC2CC(=O)O)no1` (configuration not stated) | 2.924 |
| `CC(C)c1noc(-c2ccc(NCCCN3CCCC(O)C3)nc2)n1` (configuration not stated) | 0 |
| `CCCC(=O)NCC(=O)NC(c1ccc(Cl)cc1)C(F)(F)F` (configuration not stated) | -0.3749 |
| `CCc1cnc(N2CC3(CCN(S(=O)(=O)C4CC4)C3)C2)nc1` | -4.988 |
| `CNC(=O)C(C)CN(C)C(=O)Nc1ccc(F)c(-n2cccc2)c1` (configuration not stated) | 0.6686 |
| `Cc1ccc(N2CCO[C@@H]3CN(Cc4cccc(C)n4)CC[C@@H]3C2)nn1` | -4.689 |
| `COc1ccc(CCNC(=O)CC(NC(N)=O)c2ccccc2)cc1` (configuration not stated) | -0.000006 |
| `COC(=O)CNC(=O)c1cc(-c2ccccc2)nc2ncnn12` | 4.014 |

The values are deposited in ChEMBL (CHEMBL3988442, “University of Dundee, Small-Polar-MMV Screening Library” (2021)).